Reference: PMC11176380
No constants are given. Whether binding was seen depends on the method and setting. In cells and extracts the contact can be indirect. Some results given as binding are weak or reduced against the parent protein; the word gives no strength.

Sequences of proteins named here, by UniProt entry; tags and fusion partners are left off.
UniProt Q66JW3: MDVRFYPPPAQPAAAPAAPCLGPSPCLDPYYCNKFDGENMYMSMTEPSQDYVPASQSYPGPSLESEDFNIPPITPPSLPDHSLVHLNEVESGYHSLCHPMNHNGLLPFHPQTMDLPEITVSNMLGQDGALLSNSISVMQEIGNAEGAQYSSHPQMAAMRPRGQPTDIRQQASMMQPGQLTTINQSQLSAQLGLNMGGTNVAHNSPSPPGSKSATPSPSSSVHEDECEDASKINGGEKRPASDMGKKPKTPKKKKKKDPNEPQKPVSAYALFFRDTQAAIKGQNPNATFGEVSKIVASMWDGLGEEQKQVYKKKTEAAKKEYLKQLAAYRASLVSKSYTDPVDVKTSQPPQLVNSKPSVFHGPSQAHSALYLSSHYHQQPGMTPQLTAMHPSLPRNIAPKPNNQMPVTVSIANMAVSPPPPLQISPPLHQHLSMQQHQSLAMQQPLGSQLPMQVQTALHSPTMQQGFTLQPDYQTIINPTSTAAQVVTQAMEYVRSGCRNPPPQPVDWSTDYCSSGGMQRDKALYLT

Columns and labels:
[1] = target: Heat shock protein 90α (mouse (endogenous in spleen CD8+ T cells of C57BL/6J mice)) (UniProt P07901); assay: co-IP; lysates of mouse CD8+ T cells (RIPA buffer, 4 °C; control or STAT1 siRNA transfected, 72 h) incubated with anti-HSP90α, anti-STAT1 or control IgG for 16 h at 4 °C, then Protein A/G beads 2 h; three washes; immunoblot
[2] = target: T1, STAT1 (mouse (endogenous in spleen CD8+ T cells of C57BL/6J mice)) (UniProt P42225); assay: as above
T1 sequence: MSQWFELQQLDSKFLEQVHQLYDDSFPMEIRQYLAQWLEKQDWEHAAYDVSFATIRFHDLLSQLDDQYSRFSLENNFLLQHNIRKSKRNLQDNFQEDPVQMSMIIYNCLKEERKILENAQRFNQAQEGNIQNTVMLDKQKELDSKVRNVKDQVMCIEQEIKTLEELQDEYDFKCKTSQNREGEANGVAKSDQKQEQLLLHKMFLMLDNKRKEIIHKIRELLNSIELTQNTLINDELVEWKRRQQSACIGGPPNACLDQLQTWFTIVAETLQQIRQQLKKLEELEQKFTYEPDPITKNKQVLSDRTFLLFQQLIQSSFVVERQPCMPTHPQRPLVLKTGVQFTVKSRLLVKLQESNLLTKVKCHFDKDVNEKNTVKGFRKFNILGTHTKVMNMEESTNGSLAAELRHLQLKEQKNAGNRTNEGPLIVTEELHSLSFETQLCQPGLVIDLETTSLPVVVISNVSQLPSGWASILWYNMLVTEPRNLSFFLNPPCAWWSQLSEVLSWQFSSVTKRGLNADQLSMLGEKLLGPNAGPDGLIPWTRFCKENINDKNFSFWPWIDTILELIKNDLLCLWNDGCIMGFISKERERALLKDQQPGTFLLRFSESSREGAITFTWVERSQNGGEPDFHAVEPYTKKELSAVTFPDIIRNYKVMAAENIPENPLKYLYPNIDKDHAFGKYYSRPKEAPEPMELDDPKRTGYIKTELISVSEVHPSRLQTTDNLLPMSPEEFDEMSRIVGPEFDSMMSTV

TOX (from UniProt Q66JW3 1-526) was tested. Which binding [1] did it give?
The binding was “binds”.

And the binding [2]?
Its binding is “binds”.
